Experimental data as given in article PMC9098524, “Structural basis of ion – substrate coupling in the Na^+-dependent dicarboxylate transporter VcINDY” (Nature Communications, 2022).
No constants are given. Whether binding was seen depends on the method and setting. Some binding calls cover weakened binding; strength is not graded here.

Molecular target: Na+-dependent dicarboxylate transporter from Vibrio cholerae (VcINDY) (Vibrio cholerae) (UniProt Q9KNE0)
Assay: cryo-EM structure; both purified

## Na+-dependent dicarboxylate transporter from Vibrio cholerae (VcINDY) (from UniProt Q9KNE0)
  binding: binds
